Laboratory results as given in patent US20080241144A1.
No constants are given. Whether binding was seen depends on the method and setting. Binding seen in cells or lysates may run through a third protein. Some results given as binding are weak or reduced against the parent protein; the word gives no strength.

Columns and labels:
[1] = biological target: T1, Prohibitin (PHB) (Homo sapiens) (UniProt P35232); experiment: co-immunoprecipitation: PHB IP from HeLa lysates, Raf-1 immunoblot (FIG. S3)
T1 sequence: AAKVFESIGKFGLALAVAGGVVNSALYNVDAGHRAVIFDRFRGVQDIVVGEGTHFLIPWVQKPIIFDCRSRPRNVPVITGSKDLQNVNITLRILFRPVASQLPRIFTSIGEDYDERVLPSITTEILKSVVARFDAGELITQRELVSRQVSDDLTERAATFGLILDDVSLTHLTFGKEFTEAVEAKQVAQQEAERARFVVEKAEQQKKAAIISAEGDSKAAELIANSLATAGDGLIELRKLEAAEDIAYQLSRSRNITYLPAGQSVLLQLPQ

[2] = biological target: T1, Prohibitin (PHB) (Homo sapiens); experiment: co-immunoprecipitation: endogenous PHB precipitated from EGF or buffer treated HeLa cells, Raf-1 immunoblot
[3] = biological target: T1, Prohibitin (PHB) (Homo sapiens); experiment: co-immunoprecipitation: PHB IP from HeLa lysates, Raf-1 pS338 immunoblot (FIG. S3)
[4] = biological target: T1, Prohibitin (PHB) (Homo sapiens); experiment: co-immunoprecipitation: endogenous PHB precipitated from EGF or buffer treated HeLa cells, Raf-1 pS338 immunoblot

| binding [1] | binding [2] | binding [3] | binding [4] | Substance |
| --- | --- | --- | --- | --- |
| binds | binds |  |  | Raf-1 (from UniProt P04049 1-648) (enzyme) |
|  |  | binds | binds | Raf-1 pS338 (from UniProt P04049 1-648) (enzyme) |
